Assay results as given in EP4729529A1, “PREPARATION OF PEPTIDE INHIBITOR OF INTERLEUKIN-23 RECEPTOR AND USE THEREOF” (Xizang Haisco Pharmaceutical Co., Ltd., priority 2023, dated 2024).
At least one compound was matched to its structure with a doubt left. Starred links: 1 amine or outer side, 2 acyl side, 3 side chain; linkers in the order of their positions; H or OH if unused. Positions of bridges follow the written chain, without caps; N, C: chain ends. Non-standard residues stand in square brackets, D forms with d. Residues, ends and D or L forms follow the SMILES beside them. Phe(4-OC2H4NH2,2,3-(CH2)3) = NCCOc1ccc(C[C@H](N)C(=O)O)c2c1CCC2; Trp(7-Me) = Cc1cccc2c(C[C@H](N)C(=O)O)c[nH]c12; X2 = O=C([C@H](Cc1ccc2c(c1)CCCC2)N[*:1])[*:2]; 2Nal = N[C@@H](Cc1ccc2ccccc2c1)C(=O)O; Thp(SO2) = NC1(C(=O)O)CCS(=O)(=O)CC1; AEF = NCCOc1ccc(C[C@H](N)C(=O)O)cc1; 3Pal = N[C@@H](Cc1cccnc1)C(=O)O; Pen = CC(C)(S)[C@H](N)C(=O)O; Thp = NC1(C(=O)O)CCOCC1; Sar = CNCC(=O)O

Target: T1, IL-23α/IL-12β and IL-23R (Homo sapiens, UniProt Q5VWK5)
T1 construct: purchased ACRO ILR-H82F3 (IL-23R); ILB-H52W5 (IL-23α/IL-12β)
T1 sequence (Q5VWK5 24-353 limits assumed): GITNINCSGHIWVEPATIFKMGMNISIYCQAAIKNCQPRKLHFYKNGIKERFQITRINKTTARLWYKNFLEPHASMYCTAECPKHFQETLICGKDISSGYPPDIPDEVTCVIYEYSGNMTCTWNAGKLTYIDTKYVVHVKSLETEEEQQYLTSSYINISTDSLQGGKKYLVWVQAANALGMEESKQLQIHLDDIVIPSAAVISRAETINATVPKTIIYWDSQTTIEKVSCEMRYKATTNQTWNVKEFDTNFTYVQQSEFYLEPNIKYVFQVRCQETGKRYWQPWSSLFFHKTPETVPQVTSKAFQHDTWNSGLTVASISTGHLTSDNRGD
Assay: IL-23α/IL-12β and IL-23R binding assay (TR-FRET/HTRF)
Conditions: inhibition of the binding of IL-23α/IL-12β to IL-23R, TR-FRET; both proteins 0.3 nM
Procedure: 1. IL-23α/IL-12β and IL-23R binding assay
Compounds were tested for their inhibition on the binding of IL-23α/IL-12β to IL-23R by the TR-FRET method. Solutions of proteins IL-23α/IL-12β (ACRO, Cat# ILB-H52W5) and IL-23R (ACRO, Cat# ILR-H82F3) were prepared in reaction buffer PPI (PerkinElmer, Cat# 61DB10RDF). The final concentrations of IL-23α/IL-12β and IL-23R in the reaction mixture were both 0.3 nM. Positive reference Guselkumab was 3-fold diluted from an initial concentration of 30 nM, with 10 doses. 0.1 µL of the positive reference diluted in the reaction buffer was delivered to a 384-well plate (Grenier, Cat# 784075) by the acoustic liquid delivery technique (Echo 655), and the plate was centrifuged at 1000 rpm for 1 minute. 2.5 µL of IL-23α/IL-12β solution was transferred into the 384-well reaction plate, and the plate was centrifuged at 1000 rpm for 1 minute, and incubated at 25°C for 60 minutes. 2.5 µL of IL-23R solution was transferred into the 384-well reaction plate, and the plate was centrifuged at 1000 rpm for 1 minute. 5 µL of Streptavidin-Tb cryptate and Anti 6HIS-d2 detection mixture was transferred into the 384-well reaction plate, and the plate was centrifuged at 1000 rpm for 1 minute, and incubated at 25°C for 60 minutes. Finally, the HTRF signal (Ratio 665/620 nm) was read with a BMG high-throughput drug screening multifunctional microplate reader. […]

Compound: CC(=O)NCCCC[C@@H]1NC(=O)[C@H](Cc2c[nH]c3c(C)cccc23)NC(=O)[C@H]([C@@H](C)O)NC(=O)[C@H](Cc2c[nH]cn2)NC(=O)[C@@H](NC(C)=O)C(C)(C)SSC(C)(C)[C@@H](C(=O)N[C@@H](Cc2ccc(OCCN)cc2)C(=O)N[C@@H](Cc2ccc3c(c2)CCCC3)C(=O)NC2(C(=O)N[C@@H](CCC(=O)O)C(=O)N[C@@H](CC(N)=O)C(=O)N[C@@H](Cc3cccnc3)C(=O)N(C)CC(N)=O)CCOCC2)NC1=O [Compound 6] (Ac-[Pen]HT[Trp(7-Me)]K(Ac)[Pen][AEF][X2][Thp]EN[3Pal][Sar]-NH2; disulfide 1-6; N-terminus and C-terminus assumed)
- IC50: 0.146 nM

Compound: CC(=O)N[C@@H](CS)C(=O)N[C@@H](Cc1c[nH]cn1)C(=O)N[C@H](C(=O)N[C@@H](Cc1c[nH]c2c(C)cccc12)C(=O)N[C@@H](CCC(N)=O)C(=O)N[C@@H](CS)C(=O)N[C@@H](Cc1ccc(OCCN)c2c1CCC2)C(=O)N[C@@H](Cc1ccc2ccccc2c1)C(=O)NC1(C(=O)N[C@@H](CS)C(=O)N[C@@H](CC(N)=O)C(=O)N[C@@H](Cc2cccnc2)C(=O)N(C)CC(N)=O)CCS(=O)(=O)CC1)[C@@H](C)O [Compound 45] (Ac-CHT[Trp(7-Me)]QC[Phe(4-OC2H4NH2,2,3-(CH2)3)][2Nal][Thp(SO2)]CN[3Pal][Sar]-NH2; N-terminus and C-terminus assumed)
- IC50: 0.192 nM
